# In the supplement of paper PMC10849652:
# Amino acid sequences for entries named in this document (tags omitted). A change or cut given only in a name is not applied to a line headed by its entry.
# UniProt P52895: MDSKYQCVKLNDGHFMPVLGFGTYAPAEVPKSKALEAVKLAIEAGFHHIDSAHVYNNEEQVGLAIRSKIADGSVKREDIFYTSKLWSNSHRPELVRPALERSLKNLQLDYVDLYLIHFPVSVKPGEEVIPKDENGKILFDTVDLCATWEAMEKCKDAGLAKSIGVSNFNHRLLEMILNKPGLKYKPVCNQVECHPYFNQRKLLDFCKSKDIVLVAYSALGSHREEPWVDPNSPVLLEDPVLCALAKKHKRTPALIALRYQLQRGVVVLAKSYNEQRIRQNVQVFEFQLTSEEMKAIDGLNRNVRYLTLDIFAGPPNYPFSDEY
# UniProt Q9UNA0: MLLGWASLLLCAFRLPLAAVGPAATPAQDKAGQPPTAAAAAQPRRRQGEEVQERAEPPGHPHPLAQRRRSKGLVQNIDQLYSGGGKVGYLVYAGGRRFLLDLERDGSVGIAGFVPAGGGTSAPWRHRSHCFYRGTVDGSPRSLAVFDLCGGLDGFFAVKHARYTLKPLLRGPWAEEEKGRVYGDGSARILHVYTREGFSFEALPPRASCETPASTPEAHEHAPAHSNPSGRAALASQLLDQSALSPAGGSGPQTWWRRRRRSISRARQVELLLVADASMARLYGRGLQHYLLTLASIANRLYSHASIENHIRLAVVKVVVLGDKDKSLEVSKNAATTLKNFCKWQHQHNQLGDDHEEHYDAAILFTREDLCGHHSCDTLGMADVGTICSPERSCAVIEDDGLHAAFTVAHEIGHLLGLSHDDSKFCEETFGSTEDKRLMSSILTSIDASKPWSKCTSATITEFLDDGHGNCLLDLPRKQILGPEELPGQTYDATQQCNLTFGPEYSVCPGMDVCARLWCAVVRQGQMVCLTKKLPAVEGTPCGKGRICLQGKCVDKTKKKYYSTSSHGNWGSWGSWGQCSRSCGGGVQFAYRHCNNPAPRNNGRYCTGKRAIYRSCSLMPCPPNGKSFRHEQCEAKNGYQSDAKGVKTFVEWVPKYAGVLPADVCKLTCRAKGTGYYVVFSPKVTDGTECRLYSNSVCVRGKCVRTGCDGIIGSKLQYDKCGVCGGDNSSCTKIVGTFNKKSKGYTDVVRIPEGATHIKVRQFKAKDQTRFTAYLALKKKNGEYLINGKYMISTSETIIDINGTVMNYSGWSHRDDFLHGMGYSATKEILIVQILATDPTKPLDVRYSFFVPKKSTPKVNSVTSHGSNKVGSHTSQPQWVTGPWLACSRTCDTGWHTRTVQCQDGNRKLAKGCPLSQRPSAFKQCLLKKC
# UniProt P51825: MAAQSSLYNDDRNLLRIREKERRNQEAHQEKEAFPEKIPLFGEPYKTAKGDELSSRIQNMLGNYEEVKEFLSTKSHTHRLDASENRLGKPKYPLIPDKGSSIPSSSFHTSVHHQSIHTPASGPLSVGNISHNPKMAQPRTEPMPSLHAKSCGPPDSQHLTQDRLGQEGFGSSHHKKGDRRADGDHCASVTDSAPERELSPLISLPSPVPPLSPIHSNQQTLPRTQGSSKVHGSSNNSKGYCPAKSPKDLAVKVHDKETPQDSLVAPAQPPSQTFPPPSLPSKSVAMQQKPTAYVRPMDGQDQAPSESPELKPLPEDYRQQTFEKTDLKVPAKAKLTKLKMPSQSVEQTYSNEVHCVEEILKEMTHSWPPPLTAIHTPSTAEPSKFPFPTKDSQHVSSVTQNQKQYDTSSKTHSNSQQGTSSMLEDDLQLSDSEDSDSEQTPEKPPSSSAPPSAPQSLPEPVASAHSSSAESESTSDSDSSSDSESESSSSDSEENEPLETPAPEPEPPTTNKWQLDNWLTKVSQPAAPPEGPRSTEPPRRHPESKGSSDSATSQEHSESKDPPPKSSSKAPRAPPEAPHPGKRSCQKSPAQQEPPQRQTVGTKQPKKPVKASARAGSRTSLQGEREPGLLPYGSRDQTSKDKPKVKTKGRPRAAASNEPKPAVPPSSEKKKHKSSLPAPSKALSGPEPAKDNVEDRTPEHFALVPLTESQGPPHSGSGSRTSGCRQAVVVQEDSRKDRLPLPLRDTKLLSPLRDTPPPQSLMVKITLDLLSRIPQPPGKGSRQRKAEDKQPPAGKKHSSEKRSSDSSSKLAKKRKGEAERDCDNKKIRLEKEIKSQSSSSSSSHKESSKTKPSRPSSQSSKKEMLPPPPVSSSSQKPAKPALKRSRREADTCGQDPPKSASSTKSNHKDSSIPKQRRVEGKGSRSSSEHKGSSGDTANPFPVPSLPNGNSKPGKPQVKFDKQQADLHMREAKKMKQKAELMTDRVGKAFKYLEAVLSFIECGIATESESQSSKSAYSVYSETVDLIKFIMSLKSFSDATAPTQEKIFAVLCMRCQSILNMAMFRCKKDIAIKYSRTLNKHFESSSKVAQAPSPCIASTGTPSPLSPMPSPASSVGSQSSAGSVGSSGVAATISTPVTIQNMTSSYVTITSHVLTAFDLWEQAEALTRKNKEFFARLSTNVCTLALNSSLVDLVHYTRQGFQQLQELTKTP
# UniProt O14734: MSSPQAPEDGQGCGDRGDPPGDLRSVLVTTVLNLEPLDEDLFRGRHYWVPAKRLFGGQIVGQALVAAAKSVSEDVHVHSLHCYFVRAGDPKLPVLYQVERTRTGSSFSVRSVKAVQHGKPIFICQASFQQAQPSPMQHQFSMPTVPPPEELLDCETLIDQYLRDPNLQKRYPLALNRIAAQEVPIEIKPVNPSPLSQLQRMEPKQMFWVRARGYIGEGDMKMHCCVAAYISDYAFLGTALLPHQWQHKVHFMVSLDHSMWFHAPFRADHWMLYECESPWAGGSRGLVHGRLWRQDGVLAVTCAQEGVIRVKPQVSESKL
# UniProt Q96P47: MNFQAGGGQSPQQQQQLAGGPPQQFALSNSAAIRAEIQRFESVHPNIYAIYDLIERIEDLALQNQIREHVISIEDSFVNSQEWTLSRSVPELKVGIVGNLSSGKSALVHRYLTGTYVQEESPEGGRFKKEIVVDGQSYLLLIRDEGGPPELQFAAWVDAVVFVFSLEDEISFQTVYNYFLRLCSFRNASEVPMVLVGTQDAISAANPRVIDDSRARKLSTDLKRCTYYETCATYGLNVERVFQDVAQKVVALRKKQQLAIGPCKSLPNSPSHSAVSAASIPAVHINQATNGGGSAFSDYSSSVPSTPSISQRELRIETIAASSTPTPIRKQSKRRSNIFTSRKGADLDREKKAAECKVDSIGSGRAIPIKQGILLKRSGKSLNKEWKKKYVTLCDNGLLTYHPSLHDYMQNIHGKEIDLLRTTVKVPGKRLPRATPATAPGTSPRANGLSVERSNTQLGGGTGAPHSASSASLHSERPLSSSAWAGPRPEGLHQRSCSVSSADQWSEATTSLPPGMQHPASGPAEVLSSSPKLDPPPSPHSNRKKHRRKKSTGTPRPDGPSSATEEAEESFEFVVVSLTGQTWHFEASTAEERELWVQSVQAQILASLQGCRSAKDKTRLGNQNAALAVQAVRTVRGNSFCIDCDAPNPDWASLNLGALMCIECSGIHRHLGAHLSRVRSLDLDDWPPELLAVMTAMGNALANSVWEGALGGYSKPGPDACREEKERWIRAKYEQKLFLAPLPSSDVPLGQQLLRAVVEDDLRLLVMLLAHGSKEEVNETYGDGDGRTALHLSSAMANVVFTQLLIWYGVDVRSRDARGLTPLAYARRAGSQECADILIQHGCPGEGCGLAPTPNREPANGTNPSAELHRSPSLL
# UniProt Q9NZ32, whole entry, looked up: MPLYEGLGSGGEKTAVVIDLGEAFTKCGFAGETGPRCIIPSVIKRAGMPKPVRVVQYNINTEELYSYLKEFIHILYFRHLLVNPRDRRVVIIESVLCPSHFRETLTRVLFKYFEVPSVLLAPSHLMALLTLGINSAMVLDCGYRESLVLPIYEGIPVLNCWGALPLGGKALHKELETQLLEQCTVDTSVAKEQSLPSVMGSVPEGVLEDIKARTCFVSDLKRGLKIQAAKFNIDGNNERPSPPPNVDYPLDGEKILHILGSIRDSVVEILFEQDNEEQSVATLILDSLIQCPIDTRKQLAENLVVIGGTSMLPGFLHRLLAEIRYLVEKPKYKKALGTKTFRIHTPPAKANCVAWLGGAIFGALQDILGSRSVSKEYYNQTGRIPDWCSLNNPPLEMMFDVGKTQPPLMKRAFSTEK
# UniProt Q9UEY8: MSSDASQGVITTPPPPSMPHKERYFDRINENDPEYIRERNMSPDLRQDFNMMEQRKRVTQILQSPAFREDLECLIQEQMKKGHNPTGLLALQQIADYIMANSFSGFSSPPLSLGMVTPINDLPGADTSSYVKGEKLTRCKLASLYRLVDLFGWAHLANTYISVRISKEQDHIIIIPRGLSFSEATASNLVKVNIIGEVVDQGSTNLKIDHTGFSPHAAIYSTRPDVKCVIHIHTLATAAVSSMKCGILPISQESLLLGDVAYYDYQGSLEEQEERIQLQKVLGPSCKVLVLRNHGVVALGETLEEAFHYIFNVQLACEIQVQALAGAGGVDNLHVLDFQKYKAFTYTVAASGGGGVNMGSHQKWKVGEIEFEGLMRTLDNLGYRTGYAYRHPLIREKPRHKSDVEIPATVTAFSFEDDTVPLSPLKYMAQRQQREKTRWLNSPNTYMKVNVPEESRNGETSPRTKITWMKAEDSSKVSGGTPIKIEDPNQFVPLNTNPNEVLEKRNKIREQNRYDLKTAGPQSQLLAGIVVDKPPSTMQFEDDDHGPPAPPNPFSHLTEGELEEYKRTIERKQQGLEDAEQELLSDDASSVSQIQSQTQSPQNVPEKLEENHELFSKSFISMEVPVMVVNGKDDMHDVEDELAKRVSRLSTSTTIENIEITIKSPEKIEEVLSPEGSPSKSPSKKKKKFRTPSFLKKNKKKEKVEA
# UniProt P55263: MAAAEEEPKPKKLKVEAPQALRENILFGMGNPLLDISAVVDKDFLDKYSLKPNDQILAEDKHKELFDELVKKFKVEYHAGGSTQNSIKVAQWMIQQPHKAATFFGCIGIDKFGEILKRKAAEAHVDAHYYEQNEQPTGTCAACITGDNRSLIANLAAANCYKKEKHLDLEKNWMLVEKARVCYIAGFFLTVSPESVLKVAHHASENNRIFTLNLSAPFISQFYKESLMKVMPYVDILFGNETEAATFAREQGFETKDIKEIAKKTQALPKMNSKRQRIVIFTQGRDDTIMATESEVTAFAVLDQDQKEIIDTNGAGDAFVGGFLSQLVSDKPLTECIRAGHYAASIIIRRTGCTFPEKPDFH
# UniProt P35612: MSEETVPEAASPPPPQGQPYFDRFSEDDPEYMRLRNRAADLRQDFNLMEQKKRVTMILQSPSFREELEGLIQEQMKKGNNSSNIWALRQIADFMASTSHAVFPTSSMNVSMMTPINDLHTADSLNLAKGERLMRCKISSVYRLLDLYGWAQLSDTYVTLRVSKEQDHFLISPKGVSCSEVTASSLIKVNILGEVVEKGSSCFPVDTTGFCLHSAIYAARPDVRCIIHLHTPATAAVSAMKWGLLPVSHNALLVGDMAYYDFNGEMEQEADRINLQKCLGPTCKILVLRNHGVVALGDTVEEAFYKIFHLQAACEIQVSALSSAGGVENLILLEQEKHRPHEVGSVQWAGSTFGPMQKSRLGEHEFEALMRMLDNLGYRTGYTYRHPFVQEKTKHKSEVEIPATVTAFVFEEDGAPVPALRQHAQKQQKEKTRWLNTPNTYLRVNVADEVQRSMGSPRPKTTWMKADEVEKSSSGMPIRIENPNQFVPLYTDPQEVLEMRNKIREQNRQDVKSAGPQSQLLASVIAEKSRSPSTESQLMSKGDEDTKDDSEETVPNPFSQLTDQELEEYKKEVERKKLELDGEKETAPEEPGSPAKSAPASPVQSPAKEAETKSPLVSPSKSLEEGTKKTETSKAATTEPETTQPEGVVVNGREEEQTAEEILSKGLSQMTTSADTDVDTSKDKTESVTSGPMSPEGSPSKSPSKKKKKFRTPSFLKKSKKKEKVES
# UniProt Q9NUQ2: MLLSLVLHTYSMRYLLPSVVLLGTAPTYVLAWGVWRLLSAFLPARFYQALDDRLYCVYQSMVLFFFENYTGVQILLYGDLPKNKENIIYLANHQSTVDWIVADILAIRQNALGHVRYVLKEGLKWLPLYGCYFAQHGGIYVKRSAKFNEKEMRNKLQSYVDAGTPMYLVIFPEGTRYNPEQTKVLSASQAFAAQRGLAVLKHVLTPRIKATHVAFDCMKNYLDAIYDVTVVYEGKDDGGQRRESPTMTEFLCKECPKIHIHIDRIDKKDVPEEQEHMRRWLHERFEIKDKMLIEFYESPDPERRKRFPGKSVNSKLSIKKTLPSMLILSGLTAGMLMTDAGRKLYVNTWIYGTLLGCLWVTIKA
# UniProt Q6DHV7: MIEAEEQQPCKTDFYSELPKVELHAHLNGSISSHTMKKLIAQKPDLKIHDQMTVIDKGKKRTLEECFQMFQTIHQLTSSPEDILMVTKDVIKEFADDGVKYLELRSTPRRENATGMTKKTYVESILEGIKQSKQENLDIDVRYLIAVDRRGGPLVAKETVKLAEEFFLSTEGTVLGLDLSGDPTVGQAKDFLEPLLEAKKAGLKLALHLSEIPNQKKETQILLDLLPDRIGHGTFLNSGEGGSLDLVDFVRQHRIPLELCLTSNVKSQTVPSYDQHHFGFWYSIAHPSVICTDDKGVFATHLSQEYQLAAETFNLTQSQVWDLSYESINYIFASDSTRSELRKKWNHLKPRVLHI
# The other results are listed elsewhere or left out.
# Legend:
# Assay in all cases: log2 fold change, soluble protein after heating vs DMSO (PISA); higher = thermal stabilisation; K562 lysate, 10 uM; active = over 0.2 and 3.5 SD of the protein, either way, in both replicates (recomputed)
# [1] = compound: C#Cc1cccc(Nc2ncnc3cc(OCCOC)c(OCCOC)cc23)c1 [erlotinib]
# Method in brief: (§1)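 K562 pellets were dounce-homogenised in PBS pH 7.4 containing 1 mM MgCl2, and the crude extract, at 1 mg/mL protein, was exposed to 10 μM compound for 30 min. Aliquots were heated for 3 min across 48°C-58°C, pooled, brought to 0.5% NP-40 at 4°C and spun at 21,000xg for 90 min, with the supernatant taken as soluble protein. TMTpro 16plex LC-MS/MS with equalised channel sums quantified that protein. Values are log-two fold changes in thermal stability relative to solvent controls, taken from duplicates.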
# [2] = compound: C/C(=N\NC(=O)C1=CC(=CC=C1)S(=O)(=O)N2CCOCC2)/C3=C(C=CC(=C3)Cl)O
# Method in brief: as §1
# [3] = compound: C1=CC(=CC=C1C2=NC3=C(N2)C=C(C=C3)C(=O)N)OC4=CC=C(C=C4)Cl
# Method in brief: as §1
# [4] = compound: C1=CC2=C(C=CC(=C2)/C=C\3/C(=O)NC(=NCC4=CC=CS4)S3)N=C1
# Method in brief: as §1
# [5] = compound: C1=CC2=NC=CN=C2C=C1/C=C/3\C(=O)NC(=O)S3
# Method in brief: as §1
# [6] = compound: C1=CC=C(C=C1)C2=NC(=C(N2)C3=CC=NC=C3)C4=CC(=C(C=C4)Cl)O
# Method in brief: as §1
# [7] = compound: C1=CC=C2C(=C1)C3=NNC4=CC=CC(=C43)C2=O
# Method in brief: as §1
# [8] = compound: C1CCN(C1)C(=O)NC2=CC=CC(=C2)NC3=NC=C(C(=N3)NCCC4=CN=CN4)Br
# Method in brief: as §1
# [9] = compound: C1CN(CCC1(CC2=CC=C(C=C2)Cl)N)C3=NC=NC4=C3C=CN4
# Method in brief: as §1
# [10] = compound: C1COCCN1CCN2C3=CC=CC=C3N=C2NC(=O)C4=CC(=CC=C4)[N+](=O)[O-] [IRAK-1-4 Inhibitor I]
# Method in brief: as §1
# [11] = compound: C=CC(=O)N1CCC[C@@H](n2nc(-c3ccc(Oc4ccccc4)cc3)c3c(N)ncnc32)C1 [ibrutinib]
# Method in brief: as §1
# [12] = compound: CC(=O)c1cnc2ccc(-c3cc(Cl)c(O)c(Cl)c3)nc2c1N[C@H]1CC[C@H](CN(C)C)CC1
# Method in brief: as §1
# [13] = compound: CC(C)(C)Cn1c(N)nc2ccc(-c3[nH]c(C(C)(C)C)nc3-c3ccc(F)cc3)nc21 [ralimetinib]
# Method in brief: as §1
# [14] = compound: CC(C)(O)CC(=O)NCCn1ccc2ncnc(Nc3ccc(Oc4cccc(C(F)(F)F)c4)c(Cl)c3)c21
# Method in brief: as §1
# [15] = compound: CC(C)C1=C2N=C(C=C(N2N=C1)NCC3=CC=CC=C3)NCCCCCCN
# Method in brief: as §1
# [16] = compound: CC1=C(C(CC(=O)N1)C2=CC=C(C=C2)C(F)(F)F)C(=O)NC3=C(C=C4C(=C3)C=NN4)F
# Method in brief: as §1
# [17] = compound: CC1=C(C2=C(C=C1)C(=O)C3=CC=CC=C3N2CCCN)C
# Method in brief: as §1
# [18] = compound: CC1=C(C=C(C=C1)NC(=O)C2=CC(=CC=C2)C(C)(C)C#N)NC3=CC4=C(C=C3)N=CN(C4=O)C
# Method in brief: as §1
# [19] = compound: CC1=C(C=C(C=C1)NC(=O)C2=CC(=CC=C2)N(C)C)NC(=O)C3=CC=C(C=C3)O
# Method in brief: as §1
# [20] = compound: CC1=CC=C(C=C1)SC2=C3C=C(SC3=CN=C2)C(=O)N
# Method in brief: as §1
Target,log2 fold change [1],log2 fold change [2],log2 fold change [3],log2 fold change [4],log2 fold change [5],log2 fold change [6],log2 fold change [7],log2 fold change [8],log2 fold change [9],log2 fold change [10],log2 fold change [11],log2 fold change [12],log2 fold change [13],log2 fold change [14],log2 fold change [15],log2 fold change [16],log2 fold change [17],log2 fold change [18],log2 fold change [19],log2 fold change [20]
AKR1C2 (UniProt P52895),inactive: 0.03,inactive: -0.167,inactive: 0.005,inactive: 0.015,inactive: 0.006,inactive: 0.013,inactive: -0.046,inactive: -0.033,inactive: 0.006,inactive: -0.024,inactive: 0.031,inactive: 0.021,inactive: -0.043,inactive: -0.035,inactive: 0.025,inactive: -0.025,inactive: 0.038,inactive: -0.013,inactive: 0.018,inactive: 0.019
ADAMTS5 (UniProt Q9UNA0),inactive: 0.027,inactive: 0.004,inactive: 0.044,inactive: -0.05,inactive: -0.046,inactive: 0.049,inactive: -0.001,inactive: 0.058,inactive: 0.073,inactive: 0.123,inactive: 0.032,inactive: -0.057,inactive: -0.016,inactive: -0.186,inactive: -0.011,inactive: 0.008,inactive: -0.067,inactive: 0.093,inactive: -0.031,inactive: -0.076
ACP2 (UniProt P11117),inactive: -0.034,inactive: 0.017,inactive: 0.047,inactive: -0.026,inactive: -0.017,inactive: 0.044,inactive: -0.026,inactive: -0.005,inactive: 0,inactive: 0.053,inactive: 0.029,inactive: 0.018,inactive: 0.115,inactive: 0.031,inactive: 0.023,inactive: 0.022,inactive: -0.018,inactive: 0.032,inactive: -0.035,inactive: -0.034
AFF1 isoform 2 (UniProt P51825),inactive: -0.001,inactive: -0.085,inactive: 0.027,inactive: 0.071,inactive: -0.068,inactive: -0.007,inactive: -0.041,inactive: -0.002,inactive: 0.005,inactive: 0.021,inactive: 0.136,inactive: -0.028,inactive: 0.078,inactive: -0.02,inactive: -0.001,inactive: 0.037,inactive: -0.047,inactive: 0.023,inactive: 0.02,inactive: -0.002
AGL (UniProt P35573),inactive: 0.007,inactive: 0.002,inactive: 0.003,inactive: -0.021,inactive: -0.01,inactive: 0.008,inactive: -0.035,inactive: -0.017,inactive: -0.006,inactive: 0.001,inactive: -0.007,inactive: 0.01,inactive: 0.048,inactive: 0.018,inactive: -0.006,inactive: -0.004,inactive: 0.021,inactive: -0.017,inactive: 0,inactive: 0.027
ACOT8 (UniProt O14734),inactive: -0.029,inactive: -0.018,inactive: 0.02,inactive: -0.007,inactive: 0.008,inactive: -0.008,inactive: -0.206,inactive: -0.005,inactive: 0.009,inactive: 0.053,inactive: 0.001,inactive: 0.024,inactive: 0.045,inactive: -0.06,inactive: 0.002,inactive: 0.02,inactive: -0.026,inactive: 0.017,inactive: 0.012,inactive: -0.022
AFDN (UniProt J3KN01),inactive: 0.03,inactive: 0.021,inactive: -0.01,inactive: -0.029,inactive: -0.012,inactive: 0.034,inactive: 0.007,inactive: -0.019,inactive: 0.039,inactive: -0.01,inactive: 0.036,inactive: -0.012,inactive: -0.009,inactive: -0.032,inactive: 0,inactive: -0.053,inactive: -0.034,inactive: -0.014,inactive: 0.036,inactive: 0.012
AKAP8L (UniProt Q9ULX6),inactive: 0.061,inactive: 0.093,inactive: 0.032,inactive: 0.002,inactive: 0.017,inactive: 0,inactive: -0.022,inactive: 0.029,inactive: -0.032,inactive: -0.002,inactive: 0,inactive: -0.046,inactive: 0.002,inactive: -0.019,inactive: 0.009,inactive: -0.02,inactive: 0.003,active: -0.271,inactive: 0.046,inactive: 0.032
AGAP3 isoform 4 (UniProt Q96P47),inactive: 0.02,inactive: -0.038,inactive: 0.036,inactive: 0.04,inactive: -0.016,inactive: 0.014,inactive: -0.007,inactive: 0.042,inactive: -0.046,inactive: 0.013,inactive: -0.013,inactive: 0.003,inactive: 0.014,inactive: -0.007,inactive: 0.005,inactive: -0.069,inactive: 0.006,inactive: 0.031,inactive: 0.019,inactive: 0.012
ACTR10 (UniProt Q9NZ32),inactive: -0.007,inactive: 0.025,inactive: 0.043,inactive: -0.027,inactive: -0.011,inactive: 0.052,inactive: -0.016,inactive: -0.008,inactive: -0.002,inactive: 0.015,inactive: 0.036,inactive: -0.019,inactive: -0.005,inactive: -0.007,inactive: -0.011,inactive: -0.014,inactive: -0.021,inactive: 0.085,inactive: 0.083,inactive: -0.022
ADD3 (UniProt Q9UEY8),inactive: -0.013,inactive: -0.01,inactive: 0.054,inactive: 0.013,inactive: -0.001,inactive: 0.015,inactive: -0.036,inactive: -0.007,inactive: -0.004,inactive: 0.033,inactive: 0,inactive: 0.009,inactive: 0.004,inactive: -0.049,inactive: -0.015,inactive: -0.002,inactive: 0.009,inactive: -0.005,inactive: -0.009,inactive: -0.014
ADK (UniProt P55263),inactive: 0.219,inactive: -0.024,inactive: -0.028,inactive: 0.132,inactive: -0.079,inactive: 0.047,inactive: 0.011,inactive: -0.049,inactive: 0.026,inactive: 0.063,inactive: -0.028,inactive: 0.107,inactive: 0.313,inactive: -0.027,inactive: -0.05,inactive: -0.073,inactive: -0.059,inactive: -0.007,inactive: -0.008,inactive: -0.005
ADD2 (UniProt P35612),inactive: -0.017,inactive: 0.009,inactive: 0.019,inactive: -0.008,inactive: -0.016,inactive: 0.011,inactive: -0.02,inactive: -0.034,inactive: -0.019,inactive: -0.008,inactive: -0.004,inactive: 0.001,inactive: 0.012,inactive: -0.014,inactive: -0.006,inactive: -0.024,inactive: -0.004,inactive: 0.011,inactive: 0.015,inactive: -0.016
AGPAT5 (UniProt Q9NUQ2),inactive: 0.017,inactive: 0.072,inactive: -0.147,inactive: -0.001,inactive: -0.01,inactive: -0.013,inactive: -0.065,inactive: 0.01,inactive: -0.008,inactive: 0.006,inactive: -0.04,inactive: -0.046,inactive: -0.054,inactive: -0.008,inactive: 0.018,inactive: 0.015,inactive: 0.048,inactive: -0.044,inactive: 0.051,inactive: 0.02
ADAL (UniProt Q6DHV7),inactive: -0.008,inactive: -0.009,inactive: -0.007,inactive: 0.033,inactive: -0.012,inactive: -0.007,inactive: -0.015,inactive: -0.003,inactive: 0.046,inactive: 0.004,inactive: 0.057,inactive: 0.011,inactive: 0.02,inactive: 0.017,inactive: -0.013,inactive: 0.014,inactive: -0.009,inactive: -0.039,inactive: 0.015,inactive: -0.015
AKNA (UniProt Q7Z591),inactive: 0.2,inactive: 0.124,inactive: -0.119,inactive: -0.07,inactive: 0.08,inactive: 0.028,inactive: 0.078,inactive: 0.209,inactive: 0.027,inactive: 0.037,inactive: -0.071,inactive: 0.08,inactive: 0.053,inactive: -0.015,inactive: -0.002,inactive: 0.254,inactive: -0.024,inactive: -0.034,inactive: -0.155,inactive: 0.022

# Laid out differently: results already given.
Target	log2 fold change [1]	log2 fold change [2]	log2 fold change [3]	log2 fold change [4]	log2 fold change [5]	log2 fold change [6]	log2 fold change [7]	log2 fold change [8]	log2 fold change [9]	log2 fold change [10]	log2 fold change [11]	log2 fold change [12]	log2 fold change [13]	log2 fold change [14]	log2 fold change [15]	log2 fold change [16]	log2 fold change [17]	log2 fold change [18]	log2 fold change [19]	log2 fold change [20]
AGAP3 isoform 4 (UniProt Q96P47)	inactive: 0.02	inactive: -0.038	inactive: 0.036	inactive: 0.04	inactive: -0.016	inactive: 0.014	inactive: -0.007	inactive: 0.042	inactive: -0.046	inactive: 0.013	inactive: -0.013	inactive: 0.003	inactive: 0.014	inactive: -0.007	inactive: 0.005	inactive: -0.069	inactive: 0.006	inactive: 0.031	inactive: 0.019	inactive: 0.012
ACTR10 (UniProt Q9NZ32)	inactive: -0.007	inactive: 0.025	inactive: 0.043	inactive: -0.027	inactive: -0.011	inactive: 0.052	inactive: -0.016	inactive: -0.008	inactive: -0.002	inactive: 0.015	inactive: 0.036	inactive: -0.019	inactive: -0.005	inactive: -0.007	inactive: -0.011	inactive: -0.014	inactive: -0.021	inactive: 0.085	inactive: 0.083	inactive: -0.022
